Experimental findings from publication PMC6753162, “The interactome of 2-Cys peroxiredoxins in Plasmodium falciparum” (Scientific Reports, 2019) are described below.

The chains behind the UniProt entries cited, without tags or fusion partners.
UniProt Q27743: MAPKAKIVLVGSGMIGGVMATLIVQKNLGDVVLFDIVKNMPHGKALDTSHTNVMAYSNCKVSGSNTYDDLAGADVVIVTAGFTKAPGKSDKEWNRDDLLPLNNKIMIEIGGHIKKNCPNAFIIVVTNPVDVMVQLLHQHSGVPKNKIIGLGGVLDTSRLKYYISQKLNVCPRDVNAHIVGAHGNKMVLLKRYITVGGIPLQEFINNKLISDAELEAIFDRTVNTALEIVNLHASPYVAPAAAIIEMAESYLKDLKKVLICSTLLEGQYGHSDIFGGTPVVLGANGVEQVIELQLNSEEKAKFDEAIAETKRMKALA

For the test, the target named is T1, PfPrx1a wild type (P. falciparum) (UniProt Q8IL80).
T1 sequence: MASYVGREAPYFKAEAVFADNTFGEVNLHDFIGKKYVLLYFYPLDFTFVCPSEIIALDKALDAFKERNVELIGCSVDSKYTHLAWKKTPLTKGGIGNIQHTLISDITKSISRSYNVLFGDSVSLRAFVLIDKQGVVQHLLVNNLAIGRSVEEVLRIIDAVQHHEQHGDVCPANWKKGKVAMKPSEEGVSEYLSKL
The test is described as follows: pull-down; 2 mg reduced PfPrx1a wt on CNBr-activated Sepharose 4B; 8 mg purified recombinant PfLDH wt or PfSAHH wt (not pre-reduced); extensive washing; eluted with 10 mM DTT; silver-stained 12% SDS-PAGE; both purified.

Results are given in words; binding and its absence hold for the method and conditions named. Some binding calls cover weakened binding; strength is not graded here.

Turning to “recombinant PfLDH wt (from UniProt Q27743 1-316) (enzyme)”, the binding result was “binds”.
